PMC12025066

Chains of the proteins cited; added tags and fusions are not shown. Residues count along the entry.
UniProt P16422, 24-314: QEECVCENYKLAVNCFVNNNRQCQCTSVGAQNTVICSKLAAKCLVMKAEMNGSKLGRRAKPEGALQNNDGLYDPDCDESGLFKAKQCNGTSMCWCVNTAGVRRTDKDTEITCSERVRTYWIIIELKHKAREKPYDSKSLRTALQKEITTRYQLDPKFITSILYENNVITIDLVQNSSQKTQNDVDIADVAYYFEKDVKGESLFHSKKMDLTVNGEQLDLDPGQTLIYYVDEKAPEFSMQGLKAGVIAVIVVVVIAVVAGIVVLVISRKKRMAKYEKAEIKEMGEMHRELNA

Target: EpCAM on SW480 colon cancer-derived exosomes (UniProt P16422)
Experiment: graphene field-effect transistor (Dirac point shift)
Settings: SW480 exosomes in PBS, 8.5 to 3.63e8 particles/mL (exponent printed as 108), LOD 112 particles/mL is not an affinity; 5'-NH2; covalently attached to polydopamine film on graphene and gate; Exosomes diluted in PBS, about 10 min detection; salt and temperature not stated; protein on the cell surface; single-stranded DNA

CACTACAGAGGTTGCGTCTGTCCCACGTTGTCATGGGGGGTTGGCCTG [EpCAM aptamer]
binding result: binds

Construct, isoform or probe ends are uncertain for at least one entry. Where cells or extracts were used, other partners may take part. At least one verdict was read from the data and is not stated in words by the source.
